Values from PubChem BioAssay AID1259254 (NCATS, 2017).
This is a random part of about 59,000 deposited reagents. About 1,550 of all reagents (2.6%) were called active. 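G2 share is only a proxy for re-replication; each gene was hit by three separate siRNAs, and active genes were retested.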 Raw values are not corrected between plates. Entries without a mark were called inactive. Reagents against one gene are numbered here. Not given: the amount of reagent.

Aim: 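Gene knock-downs that lead to re-replication, shown by excess G2 DNA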 (primary screen)
Cells: human HCT116 colorectal cancer cells
Reagent: single siRNA against human genes
Time to read-out: 3 days
Measurement: 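Imaged Hoechst DNA stain sorts each cell into a cycle phase by DNA amount; per plate, G2 fraction set to 0% for non-targeting and 100% for GMNN siRNA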
Scale: G2 robust z-score and G2 cells, % of GMNN control: higher = more G2 cells, more excess DNA replication; raw share of cells in G2: higher = larger share of cells with G2 DNA content
Call rule: 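Active siRNAs have a G2 robust z of 5 or more median absolute deviations over the median, which in these data means about 38% or higher of GMNN control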

no.	gene	reagent no.	G2 robust z-score	G2 cells, % of GMNN control	raw share of cells in G2 (%)
1	SAPCD1 (suppressor APC domain containing 1)	1	0.232	4.6	5.48
2	SAPCD1 (suppressor APC domain containing 1)	2	-0.0948	2.3	4.43
3	SAPCD1 (suppressor APC domain containing 1)	3	2.87	23.2	14.4
4	NDUFAF2P1 (NDUFAF2 pseudogene 1)	1	-1.1	-4.74	1.8
5	NDUFAF2P1 (NDUFAF2 pseudogene 1)	2	1.05	10.4	7.48
6	NDUFAF2P1 (NDUFAF2 pseudogene 1)	3	0.707	7.94	5.67
7	TPRG1 (tumor protein p63 regulated 1)	1	0.0283	3.17	4.8
8	TPRG1 (tumor protein p63 regulated 1)	2	-0.615	-1.36	2.52
9	TPRG1 (tumor protein p63 regulated 1)	3	2.37	19.6	9.23
10	MCM4 (minichromosome maintenance complex component 4)	1	1.2	11.4	9.99
11	MCM4 (minichromosome maintenance complex component 4)	2	-0.855	-3.05	2.19
12	MCM4 (minichromosome maintenance complex component 4)	3	-1.04	-4.32	3.69
13	DNAJA2 (DnaJ heat shock protein family (Hsp40) member A2)	1	-0.387	0.243	3.61
14	DNAJA2 (DnaJ heat shock protein family (Hsp40) member A2)	2	-0.849	-3.01	4.65
15	DNAJA2 (DnaJ heat shock protein family (Hsp40) member A2)	3	0.819	8.73	7

Continued, starting with the last 3 of the part before.
no.	gene	reagent no.	G2 robust z-score	G2 cells, % of GMNN control	raw share of cells in G2 (%)
13	DNAJA2 (DnaJ heat shock protein family (Hsp40) member A2)	1	-0.387	0.243	3.61
14	DNAJA2 (DnaJ heat shock protein family (Hsp40) member A2)	2	-0.849	-3.01	4.65
15	DNAJA2 (DnaJ heat shock protein family (Hsp40) member A2)	3	0.819	8.73	7
16	ABCC12 (ATP binding cassette subfamily C member 12)	1	-0.805	-2.7	3.81
17	ABCC12 (ATP binding cassette subfamily C member 12)	2	0.141	3.96	5.98
18	ABCC12 (ATP binding cassette subfamily C member 12)	3	-0.659	-1.67	4.89
19	CARD9 (caspase recruitment domain family member 9)	1	7.83 (active)	58.1	29.7
20	CARD9 (caspase recruitment domain family member 9)	2	-0.0247	2.79	5.34
21	CARD9 (caspase recruitment domain family member 9)	3	-0.995	-4.03	2.76
22	IMMP2L (inner mitochondrial membrane peptidase subunit 2)	1	0.627	7.38	8.71
23	IMMP2L (inner mitochondrial membrane peptidase subunit 2)	2	0.925	9.47	7.59
24	IMMP2L (inner mitochondrial membrane peptidase subunit 2)	3	3.39	26.8	14.2
25	TLCD2 (TLC domain containing 2)	1	-0.105	2.23	4.39
26	TLCD2 (TLC domain containing 2)	2	-0.71	-2.03	2.16
27	TLCD2 (TLC domain containing 2)	3	-0.799	-2.66	2.59
28	NBPF6 (NBPF member 6)	1	-0.00901	2.9	4.59
29	NBPF6 (NBPF member 6)	2	0.792	8.54	6.32
30	NBPF6 (NBPF member 6)	3	1.16	11.2	6.09
